Patent publication US20230132667A1, “DRUG-LIKE MOLECULES AND METHODS FOR THE THERAPEUTIC TARGETING OF VIRAL RNA STRUCTURES” (UNIVERSITY OF WASHINGTON, priority 2020, published 2023)
Values joined by “and” are separate entries in the source; they are usually repeats but may differ in a detail not shown here. Equal entries are not always repeated. For at least one compound, name, drawing or mass did not settle the structure.

Experiments:
[1] = biological target: HIV TAR; assay: 2-aminopurine (2AP) fluorescence binding assay; parameters: species or system HIV-1
[2] = test system: HIV TAR; assay: Target-detected NMR (TOCSY, 1D imino spectra; stage 3); assay type: binding, HIV-1; conditions: chemical shift changes, TOCSY / 1D 1H imino spectra
Experimental: Stage 3. The third stage in the screening cascade involves monitoring changes in the NMR spectra of the RNA target to identity where on the target the compound binds and examine the structural characteristics of the interaction. This step is conducted in the same […] buffer used for screening, prepared either in 95% H2O/5% D2O (water buffer) or 99.99% D2O (D2O buffer) to monitor different classes of proton resonances (FIGS. 10A and 10B). Uniform labeling of bases with ^13C and ^15N can also be performed, but this is relatively expensive.
Target detect NMR assays to measure RNA-ligand interactions. Transcribed RNA sequences (at natural isotopic abundance, along with ^15N/^13C enriched or selectively labeled ^2H samples) are snap-cooled in 250-500 μL NMR buffer (50 mM d9 bis-Tris pH 6.5, 50 mM NaCl) by heating to 95° C. for 4 min then placed at −20° C. until frozen. All ligand stocks were dissolved in 10-20 mM H2O, D2O or DMSO depending on ligand solubility. […] Ligand interactions are detected by changes in chemical shift through a series of NMR experiments, including but not limited to 1D ^1H and 2D ^1H-^1H TOCSY, ^1H-^1H NOESY, ^1H-^1H EXSY, ^15N-^1H HSQC, and ^13C-^1H HSQC experiments, which are used to map the binding site of the ligand on the RNA. […]

[3] = test system: HIV TAR; assay: Single point ligand-detected NMR relaxation assay in low salt buffer (stage 1); assay type: binding, HIV-1; conditions: 100 μM small molecule in low salt buffer, 10 μM RNA
From the text: For initial screening and hit identification, a relaxation edited ligand-detect method is used to detect binding under low salt conditions. These initial conditions are chosen to facilitate the discovery of even low affinity compounds with favorable chemical characteristics. Binding compounds are identified through changes in peak height when comparing spectra for RNA-free and RNA-bound ligand (FIG. 8). The change in peak height is proportional to the increase in ligand line width, compared to the free small molecule, which occurs upon binding to the larger biomolecule. This NMR method is agnostic to biomolecular target, as it only depends on the longer rotational correlation time (Tc) of the small molecule bound in a complex with a much larger biomolecular target, which has a much […] correlation time; other NMR methods (e.g., STD) can be used as well.
Stage 1. […] The free ligand linewidths of compounds dissolved at concentration of 100 μM were quantified and compared to the ligand linewidths observed after addition of 10 μM RNA target. […]
Small molecule hit identification and tiered approach to ligand-detected NMR screening. In order to identify small molecules that bind to RNA and quantify the strength of the interaction, a tiered approach to NMR screening involving both ligand- and target-detected NMR experiments was used. […]

[4] = test system: HIV TAR; assay: Ligand-detected NMR titration in high salt buffer (stage 2); assay type: binding, HIV-1

CCN1CCN(Cc2ccc(Nc3ncc(F)c(-c4cc(F)c5nc(C)n(C(C)C)c5c4)n3)nc2)CC1 [Abemaciclib]
Kd ([1]; 2AP-labeled HIV TAR, excess tRNA, single binding event, read-out: affinity by fitting Equation 1): 230 ± 63 nM | binding to HIV TAR by target-detected NMR (qualitative) [2]: binds non-specifically | single point binding response to HIV TAR [3]: binding responses

CC(=O)c1c(C)c2cnc(Nc3ccc(N4CCNCC4)cn3)nc2n(C2CCCC2)c1=O [Palbociclib]
Kd ([1]; 2AP-labeled HIV TAR (U25), large excess competitor tRNA, two site binding fit, read-out: apparent KD, high affinity site): 104 nM and ~100 nM | Kd ([1]; 2AP-labeled HIV TAR, two site binding fit, read-out: apparent KD, secondary low affinity site): > 700 nM | binding to HIV TAR by target-detected NMR (qualitative) [2]: binds strongly (well below uM) | single point binding response to HIV TAR [3]: clear response in binding | binding to HIV TAR stronger than to pre-miR-21 [4]: > 100 fold | Kd ([4]; 100 μM ligand, fit with Equation 5, approximate, read-out: NMR apparent KD for HIV TAR): 335 nM and 300 nM
